Test results from patent publication US9260474 (dated 2016).

Experiment: general procedure: Fmoc solid-phase peptide synthesis; 2-CTC resin or Wang resin (Fmoc-Gly-CTC 0.15-0.28 mmol/g; Fmoc-Gly-Wang 0.12-0.24 mmol/g); PyBOP/HOBt/DIEA (side-chain Palmitoyl-Glu-OtBu coupling)
Conditions: for step yield: purification step, purification yield; for final HPLC purity: 214 nm; for isolated yield: overall
[1] = whole synthesis, hydrochloride, acetate or trifluoroacetate

## liraglutide
acetate
  step yield: 54.7%
hydrochloride
  step yield: 52.7%
trifluoroacetate
  step yield: 55.2%
[1]
  final HPLC purity: greater than 98.5%
  crude yield: 80.5%
Whole synthesis, HPLC, acetate
  final HPLC purity: 99.23%
Whole synthesis, HPLC, hydrochloride
  final HPLC purity: 99.1%
Whole synthesis, HPLC, trifluoroacetate
  final HPLC purity: 99.17%
Whole synthesis, acetate
  isolated yield: 15.68%
Whole synthesis, hydrochloride
  isolated yield: 15.32%
Whole synthesis, trifluoroacetate
  isolated yield: 15.87%
